At least one peptide structure holds a part that was inferred or is arguable (an end, a ring closure or a residue). Some entries repeat one wording, which the source may state once for all of them.
Key:
[1] = Competitive experiment of radioligand against endogenous free amino acids (histidine, cysteine); type: physicochemical; conditions: 37° C., 2 hours; for radiochemical purity after incubation with cysteine: cysteine hydrochloride solution (10 mM); for radiochemical purity after incubation with histidine: histidine solution (10 mM)
Protocol: (§1) To an EP tube containing 150 μL of PBS buffer, 150 μL of H2O, and 50 μL of ^68Ga-SDYD01 was added 50 μL of cysteine hydrochloride solution (10 mM) or histidine solution (10 mM). The mixture was vortexed and incubated at 37° C. for 2 hours, after which samples were taken for radio-HPLC analysis.
This study utilized different concentrations of histidine and cysteine solutions to investigate whether histidine (or cysteine) competes with ^68Ga-SDYD01 for metal chelation.
To an EP tube containing 150 μL of PBS buffer, 150 μL of H2O, and 50 μL of ^68Ga-SDYD02 was added 50 μL of cysteine hydrochloride solution (10 mM) or histidine solution (10 mM). The mixture was vortexed and incubated at 37° C. for 2 hours, after which samples were taken for radio-HPLC analysis.
This study utilized different concentrations of histidine and cysteine solutions to investigate whether histidine (or cysteine) competes with ^68Ga-SDYD02 for metal chelation.
as §1, with “^68Ga-SDYD05” for “^68Ga-SDYD01”, “analysis. This study utilized different concentrations of histidine and cysteine solutions to investigate whether histidine (or cysteine) competes with ^68Ga-SDYD05 for metal chelation.” for “analysis.”
as §1, with “^68Ga-SDYD06” for “^68Ga-SDYD01”, “analysis. This study utilized different concentrations of histidine and cysteine solutions to investigate whether histidine (or cysteine) competes with ^68Ga-SDYD06 for metal chelation.” for “analysis.”

[2] = Determination of hydrophilicity/lipophilicity (n-octanol/water distribution coefficient); type: physicochemical; conditions: HEPES buffer pH=7.4 / n-octanol
Protocol: (§2) 10 μL of Purified ^68Ga-SDYD01 was diluted to 500 μL with HEPES buffer (pH=7.4), then 500 μL of n-octanol was added. The mixture was vortexed for 30 min and then centrifuged. Subsequently, 450 μL each of the aqueous and organic phases were taken and centrifuged again. Then, 100 μL each of the aqueous and organic phases were taken, and the radioactivity was measured using a γ counter to calculate the n-octanol/water distribution coefficient (Log Do/w). The measured Log Do/w value for ^68Ga-SDYD01 was −2.54±0.01, and for ^177Lu-SDYD01 was −2.55±0.05.
as §2, with “purified ^68Ga-SDYD02” for “Purified ^68Ga-SDYD01”, “^68Ga-SDYD02” for “^68Ga-SDYD01”, “−2.47±0.03,” for “−2.54±0.01,”, “^177Lu-SDYD02” for “^177Lu-SDYD01”, “−2.35±0.02.” for “−2.55±0.05.”
as §2, with “purified ^68Ga-SDYD05” for “Purified ^68Ga-SDYD01”, “^68Ga-SDYD05” for “^68Ga-SDYD01”, “−2.37±0.02,” for “−2.54±0.01,”, “^177Lu-SDYD05” for “^177Lu-SDYD01”, “−2.46±0.05.” for “−2.55±0.05.”
as §2, with “purified ^68Ga-SDYD06” for “Purified ^68Ga-SDYD01”, “^68Ga-SDYD06” for “^68Ga-SDYD01”, “−1.84±0.03,” for “−2.54±0.01,”, “^177Lu-SDYD06” for “^177Lu-SDYD01”, “−1.94±0.08.” for “−2.55±0.05.”
as §2, with “purified ^68Ga-SDYD03” for “Purified ^68Ga-SDYD01”, “^68Ga-SDYD03” for “^68Ga-SDYD01”, “−1.72±0.04,” for “−2.54±0.01,”, “^177Lu-SDYD03” for “^177Lu-SDYD01”, “−1.52±0.05.” for “−2.55±0.05.”
as §2, with “purified ^68Ga-SDYD04” for “Purified ^68Ga-SDYD01”, “^68Ga-SDYD04” for “^68Ga-SDYD01”, “−1.63±0.07,” for “−2.54±0.01,”, “^177Lu-SDYD04” for “^177Lu-SDYD01”, “−1.39±0.03.” for “−2.55±0.05.”
as §2, with “purified ^68Ga-SDYD07” for “Purified ^68Ga-SDYD01”, “^68Ga-SDYD07” for “^68Ga-SDYD01”, “−2.94±0.15,” for “−2.54±0.01,”, “^177Lu-SDYD07” for “^177Lu-SDYD01”, “−2.71±0.15.” for “−2.55±0.05.”
10 μL of purified ^68Ga-SDYD08 was diluted to 500 μL with HEPES buffer (pH=7.4), then 500 μL of n-octanol was added. […]

SMILES | competitive chelation in the presence of histidine and cysteine (in words) [1] | radiochemical purity after incubation with cysteine [1] | radiochemical purity after incubation with histidine [1] | n-octanol/water distribution coefficient (Log Do/w) [2]
CCCCCC(=O)N[C@@H]1CSCc2cc(CSCCNC(=O)COCCOCCNC(=O)COCCOCCNC(=O)CSC3CC(=O)N(CCC(=O)N[C@H](CCCCNC(=O)CN4CCN(CC(=O)O)CCN(CC(=O)O)CCN(CC(=O)O)CC4)C(=O)NCc4ccc(C(=O)NCCC[C@@H]5C(=O)N[C@@H](CCCNC(=N)N)C(=O)N[C@@H](Cc6ccc7ccccc7c6)C(=O)NCC(=O)N[C@H](Cc6ccc(O)cc6)C(=O)N5C)cc4)C3=O)cc(c2)CSC[C@@H](C(=O)O)NC(=O)[C@H](Cc2ccccc2)NC(=O)[C@H](CCC(N)=O)NC(=O)C([C@@H](C)O)NC(=O)[C@@H]2CCCN2C(=O)[C@@H]2CCCN2C1=O (single isomer, unassigned) [^68Ga-SDYD06, metal not drawn] | did not undergo competitive chelation | 93% | 92% | −1.84±0.03
CN1C(=O)[C@@H](Cc2ccc(O)cc2)NC(=O)CNC(=O)[C@H](Cc2ccc3ccccc3c2)NC(=O)[C@H](CCCNC(=N)N)NC(=O)[C@H]1CCCNC(=O)c1ccc(CNC(=O)[C@H](CCCCNC(=O)CN2CCN(CC(=O)O)CCN(CC(=O)O)CCN(CC(=O)O)CC2)NC(=O)CCC(=O)NCCOCCOCC(=O)NCCOCCOCC(=O)N2CCN(CCCOc3ccc4nccc(C(=O)NCC(=O)N5CC(F)(F)C[C@H]5C#N)c4c3)CC2)cc1 [^68Ga-SDYD05, metal not drawn] | did not undergo competitive chelation | 95% | 94% | −2.37±0.02
